Results published in the supplement of paper PMC10331698.
± gives the standard deviation of the averaged measurements. Most entries show no effect beyond the scatter of the controls.

Key:
Experiment in all cases: level (log10 ratio to DMSO vehicle control); higher = higher biomarker level / cell amount than vehicle control
[1] = compound: NC(=O)C(F)(F)C(F)(F)F [Pentafluoropropionamide]; conditions: 2200 nM; in DMSO
Procedure: (§1)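 BioMAP Diversity Plus panel of 12 human primary cell co-culture systems (3C, 4H, LPS, SAg, BT, BF4T, BE3C, CASM3C, HDF3CGF, KF3CT, MyoF, Mphg). Compounds were added 1 h before stimulation and left for 24 h (MyoF 48 h; BT 72 h for soluble read-outs or 6 d for IgG). Biomarkers were read by ELISA, cytotoxicity by SRB, PBMC viability and proliferation by Alamar Blue. Each well value was divided by the mean of 8 DMSO control wells on the same plate and log10 transformed; duplicate blinded samples were tested at 4 concentrations.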

[2] = compound: NC(=O)C(F)(F)C(F)(F)C(F)(F)C(F)F; conditions: in DMSO
Procedure: as §1

[3] = compound: NS(=O)(=O)C(F)(F)C(F)(F)C(F)(F)C(F)(F)C(F)(F)C(F)(F)C(F)(F)C(F)(F)F [Perfluorooctanesulfonamide]; conditions: in DMSO
Procedure: as §1

[4] = compound: C=C(C)C(=O)OCC(F)(F)C(F)(F)C(F)(F)C(F)(F)C(F)(F)C(F)(F)C(F)(F)F; conditions: in DMSO
Procedure: as §1

[5] = compound: O=P(O)(O)CCC(F)(F)C(F)(F)C(F)(F)C(F)(F)C(F)(F)C(F)(F)F [2-(Perfluorohexyl)ethylphosphonic acid]; conditions: 2200 nM; in DMSO
Procedure: as §1

[6] = compound: OCC(F)(F)C(F)(F)C(F)(F)C(F)(F)C(F)(F)C(F)F [1H,1H,7H-Dodecafluoro-1-heptanol]; conditions: 2200 nM; in DMSO
Procedure: as §1

[7] = compound: C=CC(=O)OCC(F)(F)C(F)(F)C(F)(F)C(F)(F)C(F)(F)C(F)(F)C(F)(F)F [1H,1H-Perfluorooctyl acrylate]; conditions: 2200 nM; in DMSO
Procedure: as §1

[8] = compound: O=S(=O)(O)C(F)(F)C(F)(F)C(F)(F)C(F)(F)C(F)(F)C(F)(F)C(F)(F)C(F)(F)F [Potassium perfluorooctanesulfonate]; conditions: 2200 nM; in DMSO
Procedure: as §1

[9] = compound: COC(=O)C(F)(F)C(F)(F)OC(F)(C(F)(F)F)C(F)(F)OC(F)=C(F)F [Methyl perfluoro(3-(1-ethenyloxypropan-2-yloxy)propanoate)]; conditions: in DMSO
Procedure: as §1

[10] = compound: FC(F)(F)C(F)(F)C(F)(F)CI [Heptafluorobutyl iodide]; conditions: 2200 nM; in DMSO
Procedure: as §1

[11] = compound: CO[Si](C)(CCC(F)(F)C(F)(F)C(F)(F)C(F)(F)C(F)(F)C(F)(F)F)OC [Dimethoxymethyl((perfluorohexyl)ethyl)silane]; conditions: in DMSO
Procedure: as §1

[12] = compound: FC(F)(F)C(F)(F)C(F)(F)CC1CO1 [1H,1H-Heptafluorobutyl epoxide]; conditions: 2200 nM; in DMSO
Procedure: as §1

[13] = compound: O=S(=O)(F)C(F)(F)C(F)(F)C(F)(F)C(F)(F)C(F)(F)C(F)(F)C(F)(F)C(F)(F)F [Perfluorooctanesulfonyl fluoride]; conditions: 2200 nM; in DMSO
Procedure: as §1

[14] = compound: O=S(=O)(O)C(F)(F)C(F)(F)C(F)(F)C(F)(F)C(F)(F)C(F)(F)C(F)(F)C(F)(F)F [Perfluorooctanesulfonic acid]; conditions: 2200 nM; in DMSO
Procedure: as §1

[15] = compound: O=S(=O)(OCC(F)(F)F)C(F)(F)C(F)(F)C(F)(F)C(F)(F)F [2,2,2-Trifluoroethyl perfluorobutanesulfonate]; conditions: 2200 nM; in DMSO
Procedure: as §1

[16] = compound: O=C(O)C(F)(F)C(F)(F)C(F)F [4H-Perfluorobutanoic acid]; conditions: in DMSO
Procedure: as §1

[17] = compound: OCCCCC(F)(F)C(F)(F)C(F)(F)C(F)(F)F [4:4 Fluorotelomer alcohol]; conditions: 2200 nM; in DMSO
Procedure: as §1

[18] = compound: C=CC(F)(F)C(F)(F)C(F)(F)C(F)(F)C(F)(F)C(F)(F)C(F)(F)C(F)(F)C=C [1,8-Divinylperfluorooctane]; conditions: in DMSO
Procedure: as §1

Test System | level (log10) [1] | level (log10) ([2]; 2200 nM) | level (log10) ([2]; 6700 nM) | level (log10) ([2]; 20000 nM) | level (log10) ([2]; 60000 nM) | level (log10) ([3]; 2200 nM) | level (log10) ([3]; 6700 nM) | level (log10) ([3]; 20000 nM) | level (log10) ([4]; 740 nM) | level (log10) ([4]; 2200 nM) | level (log10) [5] | level (log10) [6] | level (log10) [7] | level (log10) [8] | level (log10) ([9]; 740 nM) | level (log10) ([9]; 2200 nM) | level (log10) [10] | level (log10) ([11]; 740 nM) | level (log10) ([11]; 2200 nM) | level (log10) [12] | level (log10) [13] | level (log10) [14] | level (log10) [15] | level (log10) ([16]; 2200 nM) | level (log10) ([16]; 6700 nM) | level (log10) ([16]; 20000 nM) | level (log10) ([16]; 60000 nM) | level (log10) [17] | level (log10) ([18]; 740 nM) | level (log10) ([18]; 2200 nM)
LPS:sPGE2 | 0.0065 ± 0.11 | -0.005 ± 0.051 | -0.0045 ± 0.028 | -0.0005 ± 0.005 | 0.0315 ± 0.036 | -0.029 ± 0.02 | 0.07 ± 0.011 | 0.0945 ± 0.012 | -0.0305 ± 0.05 | -0.022 ± 0.047 | -0.015 ± 0.031 | 0.0025 ± 0.018 | -0.059 ± 0.017 | 0.0165 ± 0.0064 | 0.049 ± 0.021 | 0.023 ± 0.057 | -0.045 ± 0.021 | -0.0005 ± 0.069 | -0.0255 ± 0.083 | 0.044 ± 0.057 | -0.0215 ± 0.03 | 0.025 ± 0.024 | 0.0215 ± 0.047 | -0.004 ± 0.027 | 0.0025 ± 0.054 | -0.111 ± 0.054 | -0.052 ± 0.013 | -0.0365 ± 0.043 | -0.04 ± 0.0042 | -0.023 ± 0.0099
LPS:sTNF-alpha | -0.0135 ± 0.057 | -0.0135 ± 0.0035 | -0.0095 ± 0.0035 | -0.0095 ± 0.022 | -0.003 ± 0.031 | 0.002 ± 0.0071 | 0.007 ± 0.0042 | -0.0245 ± 0.00071 | -0.128 ± 0.22 | -0.044 ± 0.15 | -0.003 ± 0.02 | -0.0135 ± 0.00071 | -0.0005 ± 0.0078 | 0.045 ± 0.017 | 0.0115 ± 0.016 | -0.012 ± 0.0071 | -0.013 ± 0.02 | -0.005 ± 0.0028 | -0.004 ± 0.0085 | -0.004 ± 0.016 | -0.014 ± 0.016 | 0.039 ± 0.088 | -0.014 ± 0.024 | 0.001 ± 0.04 | 0.0095 ± 0.043 | 0.0095 ± 0.023 | 0.004 ± 0.031 | 0.028 ± 0.1 | -0.0305 ± 0.032 | 0.0495 ± 0.028
MyoF:CD106/VCAM-1 | -0.0145 ± 0.021 | -0.0085 ± 0.005 | -0.0085 ± 0.013 | -0.0205 ± 0.013 | -0.0235 ± 0.013 | -0.0005 ± 0.028 | -0.005 ± 0.023 | -0.293 ± 0.088 | 0.002 ± 0.021 | 0.0015 ± 0.005 | 0.0075 ± 0.016 | -0.0035 ± 0.0064 | 0.007 ± 0.0057 | -0.001 ± 0.013 | -0.0085 ± 0.021 | -0.021 ± 0.017 | -0.022 ± 0.017 | -0.0215 ± 0.016 | -0.01 ± 0.0071 | -0.0335 ± 0.005 | -0.0045 ± 0.0064 | 0.008 ± 0.025 | 0.0045 ± 0.033 | -0.0035 ± 0.0064 | -0.0065 ± 0.011 | -0.017 ± 0.0071 | 0.0135 ± 0.015 | -0.002 ± 0.018 | -0.01 ± 0.0014 | 0.0145 ± 0.00071
MyoF:CXCL8/IL-8 | -0.0135 ± 0.028 | -0.0245 ± 0.0064 | -0.0285 ± 0.0092 | -0.0185 ± 0.028 | 0.018 ± 0.054 | -0.0185 ± 0.005 | -0.04 ± 0.031 | -0.013 ± 0.0085 | 0.0065 ± 0.018 | -0.007 ± 0.021 | 0.0075 ± 0.015 | -0.0195 ± 0.09 | 0.0315 ± 0.053 | 0.0105 ± 0.06 | 0.0285 ± 0.04 | 0.0395 ± 0.043 | -0.007 ± 0.011 | -0.007 ± 0.017 | -0.0085 ± 0.011 | -0.003 ± 0.023 | 0.0015 ± 0.018 | -0.027 ± 0.0028 | 0.0335 ± 0.032 | -0.007 ± 0.017 | -0.0125 ± 0.059 | -0.0145 ± 0.0035 | 0.0465 ± 0.074 | 0.027 ± 0.0014 | 0.015 ± 0.0057 | -0.0285 ± 0.011
MyoF:Collagen I | 0.004 ± 0.023 | -0.018 ± 0.014 | -0.0115 ± 0.015 | -0.002 ± 0.02 | 0.006 ± 0.017 | -0.013 ± 0.011 | -0.018 ± 0.014 | -0.236 ± 0.0028 | 0.0375 ± 0.023 | -0.001 ± 0.0014 | -0.0035 ± 0.0092 | -0.0015 ± 0.005 | -0.005 ± 0.024 | -0.005 ± 0.028 | -0.003 ± 0.0014 | -0.0055 ± 0.021 | -0.01 ± 0.0014 | -0.006 ± 0.044 | 0.014 ± 0.031 | -0.0085 ± 0.0021 | -0.0125 ± 0.00071 | 0.0135 ± 0.022 | -0.0075 ± 0.012 | 0.015 ± 0.0071 | -0.0215 ± 0.022 | -0.0115 ± 0.018 | -0.0115 ± 0.0092 | 0.015 ± 0.011 | 0 ± 0.038 | -0.003 ± 0.027
MyoF:Collagen III | -0.0125 ± 0.00071 | -0.0095 ± 0.0021 | 0.003 | 0.0135 ± 0.00071 | -0.0065 ± 0.035 | -0.0085 ± 0.013 | -0.014 ± 0.0099 | -0.242 ± 0.023 | 0.003 ± 0.0099 | -0.0015 ± 0.011 | -0.005 | -0.0105 ± 0.0064 | -0.0005 ± 0.013 | -0.0045 ± 0.0021 | 0.0065 ± 0.00071 | -0.0025 ± 0.015 | -0.0215 ± 0.022 | -0.011 ± 0.0028 | 0.005 ± 0.016 | -0.0185 ± 0.021 | 0.0105 ± 0.032 | -0.0025 ± 0.029 | 0.008 ± 0.027 | 0.0135 ± 0.0064 | 0.022 ± 0.0099 | 0.0155 ± 0.0064 | 0.034 ± 0.014 | 0.007 ± 0.011 | -0.023 ± 0.0085 | -0.0145 ± 0.011
MyoF:Collagen IV | -0.0035 ± 0.0035 | 0.024 ± 0.037 | -0.0075 ± 0.0035 | -0.007 ± 0.028 | 0.014 ± 0.038 | 0.018 ± 0.031 | 0.118 ± 0.015 | 0.28 ± 0.028 | 0.005 ± 0.03 | -0.03 ± 0.0028 | -0.0225 ± 0.0035 | 0.016 ± 0.065 | 0.0295 ± 0.023 | 0.0305 ± 0.05 | -0.0065 ± 0.022 | -0.007 ± 0.014 | 0.0005 ± 0.0064 | 0.031 ± 0.064 | 0.0075 ± 0.019 | -0.018 ± 0.0014 | 0.019 ± 0.03 | 0.0135 ± 0.043 | -0.0225 ± 0.021 | 0.0185 ± 0.054 | 0.0025 ± 0.0035 | 0.0005 ± 0.0035 | 0.023 ± 0.027 | 0.0125 ± 0.021 | 0.0065 ± 0.03 | -0.0255 ± 0.021
MyoF:Decorin | 0.02 ± 0.035 | -0.0265 ± 0.012 | 0.012 ± 0.0085 | -0.0035 ± 0.03 | -0.009 ± 0.0085 | 0.0125 ± 0.0092 | 0.0265 ± 0.053 | 0.031 ± 0.037 | 0.01 ± 0.013 | 0.0025 ± 0.016 | -0.002 ± 0.02 | -0.017 ± 0.016 | 0.0015 ± 0.018 | 0.035 ± 0.055 | 0.035 ± 0.0014 | 0.0325 ± 0.037 | -0.005 ± 0.0085 | 0.008 ± 0.018 | 0.003 ± 0.0042 | -0.007 ± 0.0099 | -0.0115 ± 0.018 | 0.0255 ± 0.042 | 0.049 ± 0.059 | -0.0095 ± 0.071 | -0.005 ± 0.048 | 0.003 ± 0.064 | 0.0655 ± 0.088 | 0.015 ± 0.028 | 0.0055 ± 0.046 | -0.0055 ± 0.015
